PubChem BioAssay AID2685 (National Center for Advancing Translational Sciences (NCATS), 2010)
Some of the results follow. Further columns of the screen follow, without active or inactive calls. Compounds called inactive in the main read-out are mostly missing here. Words in brackets tell the shape of the fitted curve; partial curves, single points and poor fits give uncertain potencies.

Experiment: qHTS Assay for Lipid Storage Modulators in Drosophila S3 Cells;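 for cell number change: cells counted by Cell Tracker Red CMTPX staining in the red channel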
Conditions: BODIPY lipid droplet fluorescence, 18-24 h; for cell number change: measured here: cell count max response, cells fed with added oleic acid
In short: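 Drosophila S3 cells loaded with oleic acid (400 uM, as added) and compounds at several concentrations; lipid droplets imaged by 488-nm laser-scanning cytometry, 500–530 nm intensity and object ratio to cell channel. Percent activity normalized to 20 uM Triacsin C.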

[1] = measured here: lipid fluorescence (Fed channel) AC50, cells fed with added oleic acid
[2] = measured here: cell number channel AC50, cells fed with added oleic acid

Row | SMILES | cell number change [%] | AC50 [1] | AC50 [2]
1 | CCOC(=O)N1CCN(c2nc(=S)n(-c3ccccc3)c(C)c2C(C)=O)CC1 | 8.12 | 6.51 µM [rising, single point] | –
2 | Cc1cc(C)c(S(=O)(=O)N2CCCOC2CNC(=O)C(=O)NCc2ccncc2)c(C)c1 (stereo unspecified) | -12.5 | 0.146 µM [falling, full curve, poor fit] | –
3 | BrC(=C\c1ccccc1)/C=N/n1cnnc1 | – | – | 3.66 µM [rising, partial curve, poor fit]
4 | Cc1cc(NC(=O)c2ccc(Br)o2)ccc1NC(=O)c1ccco1 | 6.09 | 29.1 µM [rising, single point] | –
5 | COC(=O)CC1C(=O)NCCN1C(=O)Nc1cccc(Cl)c1 (stereo unspecified) | 8.92 | 29.1 µM [rising, single point] | –
6 | COCCn1c(SCC(=O)N2CCCC2)nnc1-c1ccoc1C | -46.4 | 4.61 µM [falling, full curve, poor fit] | 16.4 µM [falling, single point]
7 | O=C(COc1ccccc1Cl)Nc1ccc2c(c1)OCCO2 | 16.9 | 6.51 µM [falling, single point] | –
8 | CCOc1ccccc1/C=N/NC(=O)CNC(=O)COc1ccccc1 | 29.5 | 32.6 µM [rising, single point] | –
9 | Cc1ccc2c(c1)N(CC(=O)Nc1ncccc1C)C(=O)C(C(C)C)O2 (stereo unspecified) | – | 0.259 µM [falling, full curve, poor fit] | –
10 | O=C(CCc1ccccc1)NNC(=O)c1ccccc1Br | -52.8 | – | 0.00461 µM [falling, full curve, poor fit]
11 | CC1Cc2ccccc2N1S(=O)(=O)c1cccc(C(=O)NNC(=O)c2ccccc2F)c1 (stereo unspecified) | -14.5 | 0.326 µM [rising, full curve, poor fit] | –
12 | Cc1ccccc1C(=O)Nc1cc(C(F)(F)F)ccc1-n1cncn1 | -51.9 | 20.6 µM [falling, single point] | 29.1 µM [falling, single point]
13 | C=C(C)CN=C1SC(C(=O)Nc2sc3c(c2C(=O)OC)CCC3)C(N)=C1C(N)=O (stereo unspecified) | -30.3 | – | 32.6 µM [falling, single point]
14 | CC(C)N(C(=O)CSc1nn2c(=O)c(C(C)(C)C)nnc2s1)c1ccccc1 | 69.3 | – | 18.4 µM [rising, partial curve]
15 | O=C(C1=C(O)/C(=C/c2ccc(O)cc2)CCC1)C(F)(F)F | -59.9 | 18.4 µM [falling, single point] | 23.1 µM [falling, single point]
16 | O=C(NN1CCOCC1)c1ccc(Cl)cc1[N+](=O)[O-] | 44.6 | 6.51 µM [rising, partial curve] | 8.2 µM [rising, partial curve]
17 | O=C(CSc1nnc(COc2ccc(Cl)cc2)o1)OC1CCCCC1 | -98.3 | 29.1 µM [falling, single point] | 32.6 µM [falling, partial curve]
18 | COc1ccc(CCNC(=O)CSc2ncnc3c2oc2ccccc23)cc1OC | 0.149 | 0.651 µM [falling, full curve, poor fit] | –
19 | COc1ccccc1C(=O)Nc1sc2c(c1C(=O)NCc1ccco1)CCCC2 | – | – | 0.13 µM [rising, full curve, poor fit]
20 | Nc1c2c(nc3ccn(Cc4ccccc4)c(=O)c13)CCC2 | 33.9 | 4.11 µM [rising, single point] | 20.6 µM [rising, single point]
21 | Cc1cc(N2C(=O)C3CCC(c4ccccc4)CC3C2=O)no1 (stereo unspecified) | 8.05 | 7.94 µM [rising, partial curve] | –

Row | SMILES | cell number change [%] | AC50 [1] | AC50 [2]
22 | COC(=O)c1sc2ccccc2c1-n1cccc1C(=O)C(=O)Nc1ccc(OC)cc1 | 22.7 | 0.366 µM [rising, full curve] | –
23 | CCOCCCN(C)C1CCN(C(=O)c2oc3ccccc3c2NC(=O)Cc2ccc(F)cc2)CC1 | 4.78 | – | 0.731 µM [rising, single point]
24 | Cc1ccc(CNc2ccccc2C(=O)O)s1 | -2.89 | 25.9 µM [rising, single point] | –
25 | O=C(O)C1=C[C@H](c2csc3ccccc23)C[C@H](OCCCCO)O1 | 0.877 | 5.8 µM [rising, single point] | –
26 | COc1ccc(-n2sc3c(c2=S)-c2cc(OC)ccc2NC3(C)C)cc1 | -140 | – | –
27 | Cc1cc(OC(=O)c2ccc(F)cc2)c([N+](=O)[O-])c(=O)[nH]1 | -16.5 | – | –
28 | Cc1ccc(Nc2c(-c3ccc(N4CCOCC4)cc3)nc3ncccn23)c(C)c1 | -2.15 | 11.6 µM [rising, partial curve] | –
29 | CCn1cc(CNC(=O)c2ccc(OC3CCN(Cc4ccccn4)CC3)cc2)cn1 | – | 29.1 µM [falling, single point] | –
30 | Cc1cc(C)nc(SCc2ccc(C(=O)NNC(=O)Nc3cccc(Cl)c3)cc2)n1 | – | 29.1 µM [rising, single point] | 0.731 µM [rising, single point]
31 | CCC1CCCCN1CCCNC(=O)Cn1ncc2c(C)n(Cc3ccccc3Cl)c(C)c2c1=O (stereo unspecified) | 8.65 | – | –
32 | N#Cc1nc(-c2ccc(OCc3ccc(Cl)cc3)cc2)oc1NCCCn1ccnc1 | -5.7 | – | –
33 | CCC(Oc1ccccc1)C(=O)OCC(=O)Nc1sccc1C(N)=O (stereo unspecified) | 30.9 | 14.6 µM [rising, partial curve] | 18.4 µM [rising, single point]
34 | COc1cccc2c1C(=O)c1ccc3ccccc3c1C2=O | 105 | 3.66 µM [rising, full curve] | 3.66 µM [rising, full curve]
35 | CCc1nnc(NC(=O)c2oc3cc(C)c(C)cc3c2C)s1 | 9.89 | 2.31 µM [rising, single point] | –
36 | O=C(Nc1ccccc1-c1nnn(CC(=O)N2CCN(c3ccccc3)CC2)n1)c1cccs1 | 7.78 | 1.64 µM [rising, partial curve] | –
37 | Cc1ccc(N(C(=O)C(F)(F)F)C(C(=O)NC2CCCCC2)c2cccs2)cc1 (stereo unspecified) | 24.4 | 29.1 µM [rising, single point] | –
38 | COc1cc(C(=O)NCc2nnc(SCC(=O)N3CCCC3)o2)cc(OC)c1OC | -6.23 | – | –
39 | Cc1[nH]c(=O)cc2ccccc12 | 9.05 | 5.17 µM [falling, single point] | –
40 | CCn1c(SCC(=O)Nc2nccs2)nnc1-c1ccccn1 | -9.68 | 0.0058 µM [falling, full curve, poor fit] | –
41 | COc1cc(NC(=O)CSc2nnc(Cn3nnc4ccccc43)n2C)cc(OC)c1 | -25.8 | 18.4 µM [falling, single point] | –
42 | COc1ccc(NC(=S)N(CCCN2CCCC2)Cc2cccs2)cc1 | 15.9 | 0.0651 µM [falling, full curve] | –

Row | SMILES | cell number change [%] | AC50 [1] | AC50 [2]
43 | O=C(COc1ccccc1)NCCS(=O)(=O)N1CCN(c2ccccc2)CC1 | 72.1 | – | 16.4 µM [rising, partial curve]
44 | COc1cc(C2NC(=O)NC(C)=C2C(=O)OCc2ccccc2)ccc1O (stereo unspecified) | -22.3 | – | –
45 | CC(C)(CNS(=O)(=O)c1ccc2ccccc2c1)N1CCOCC1 | 5 | – | –
46 | CC12CCC(=O)N1C(C(=O)Nc1nnc(SCc3ccccc3F)s1)CS2 (stereo unspecified) | -11.4 | 16.4 µM [falling, single point] | –
47 | CCOC(=O)N1CCN(c2c(N3CCN(c4ccccc4F)CC3)c(=O)c2=O)CC1 | 11.8 | 0.103 µM [rising, full curve, poor fit] | –
48 | CCOc1ccccc1C(=O)Nc1ccc(-n2nncc2C(C)(C)C)cc1 | 19.9 | – | 1.64 µM [rising, partial curve, poor fit]
49 | COc1cccc(CNC(=O)COC(=O)CCc2cc(OC)c(OC)c(OC)c2)c1 | 2.68 | – | –
50 | O=C(NNc1c2ccccc2nc2ccccc12)c1ccc(Cl)cc1 | -75.4 | – | –
51 | Cc1ccc(NC(=O)CCCc2ccccc2)nc1 | 1.28 | – | –
52 | O=C(Nc1ccc2sccc2c1)c1cccc(N2C(=O)CCC2=O)c1 | -95.7 | 18.4 µM [falling, partial curve] | –
53 | CCOc1ccc(S(=O)(=O)NCc2ccccn2)cc1NC(=O)c1ccccc1F | 112 | 0.366 µM [falling, full curve] | 29.1 µM [rising, single point]
54 | CCc1ccccc1NS(=O)(=O)c1ccc2[nH]cc(C(=O)NC3CCCC3)c(=O)c2c1 | 12.8 | – | –
55 | CC(=O)c1cccc(NC(=O)C2CCN(C(=O)c3ccccc3Cl)CC2)c1 | 17.9 | 3.66 µM [rising, full curve, poor fit] | –
56 | O=C(COC(=O)c1ccc(Cl)c(S(=O)(=O)N2CCOCC2)c1)NCc1ccco1 | 12 | – | –
57 | CCN(CC)c1ccc(NC2=C(Cl)C(=O)c3ccccc3C2=O)cc1 | -17.9 | 0.103 µM [falling, full curve, poor fit] | 0.206 µM [falling, full curve, poor fit]
58 | Cc1cc(C)c(-n2nnnc2SC(C)C)c(C)c1 | – | 5.17 µM [rising, single point] | 6.51 µM [rising, single point]
59 | COC(=O)COc1cc(OCC(=O)OC)c2c(-c3ccccc3)cc(=O)oc2c1 | -17.1 | – | –
60 | COC(=O)c1cn(C(=O)c2ccco2)c2ccccc12 | 6.99 | 0.00461 µM [falling, full curve, poor fit] | –
61 | C=CCn1c(-c2ccc(S(=O)(=O)N3CCOCC3)cc2)csc1=Nc1ccccc1 | -40.4 | 29.1 µM [falling, single point] | 29.1 µM [falling, partial curve, poor fit]

Laid out differently: results already given.

| Row | SMILES | cell number change [%] | AC50 [1] | AC50 [2] |
| --- | --- | --- | --- | --- |
| 53 | CCOc1ccc(S(=O)(=O)NCc2ccccn2)cc1NC(=O)c1ccccc1F | 112 | 0.366 µM [falling, full curve] | 29.1 µM [rising, single point] |
| 54 | CCc1ccccc1NS(=O)(=O)c1ccc2[nH]cc(C(=O)NC3CCCC3)c(=O)c2c1 | 12.8 | – | – |
| 56 | O=C(COC(=O)c1ccc(Cl)c(S(=O)(=O)N2CCOCC2)c1)NCc1ccco1 | 12 | – | – |
| 61 | C=CCn1c(-c2ccc(S(=O)(=O)N3CCOCC3)cc2)csc1=Nc1ccccc1 | -40.4 | 29.1 µM [falling, single point] | 29.1 µM [falling, partial curve, poor fit] |
